Consider 37 targets from the supplement of paper PMC7666118.

Protein sequences, listed by entry. Tags and fused reporters are not part of them. Lines headed by an entry give the natural chain unless they say otherwise; changes in a name come on top.
UniProt Q9H3Z4: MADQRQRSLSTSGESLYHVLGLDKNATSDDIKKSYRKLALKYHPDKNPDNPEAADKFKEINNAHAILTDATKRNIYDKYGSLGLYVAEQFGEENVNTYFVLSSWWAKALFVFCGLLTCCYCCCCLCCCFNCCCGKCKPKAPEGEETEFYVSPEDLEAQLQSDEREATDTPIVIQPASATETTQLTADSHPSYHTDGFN
UniProt Q13541: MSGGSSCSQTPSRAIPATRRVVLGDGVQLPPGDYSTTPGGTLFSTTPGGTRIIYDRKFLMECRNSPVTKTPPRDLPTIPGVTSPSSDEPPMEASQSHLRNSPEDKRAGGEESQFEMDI
UniProt P51530: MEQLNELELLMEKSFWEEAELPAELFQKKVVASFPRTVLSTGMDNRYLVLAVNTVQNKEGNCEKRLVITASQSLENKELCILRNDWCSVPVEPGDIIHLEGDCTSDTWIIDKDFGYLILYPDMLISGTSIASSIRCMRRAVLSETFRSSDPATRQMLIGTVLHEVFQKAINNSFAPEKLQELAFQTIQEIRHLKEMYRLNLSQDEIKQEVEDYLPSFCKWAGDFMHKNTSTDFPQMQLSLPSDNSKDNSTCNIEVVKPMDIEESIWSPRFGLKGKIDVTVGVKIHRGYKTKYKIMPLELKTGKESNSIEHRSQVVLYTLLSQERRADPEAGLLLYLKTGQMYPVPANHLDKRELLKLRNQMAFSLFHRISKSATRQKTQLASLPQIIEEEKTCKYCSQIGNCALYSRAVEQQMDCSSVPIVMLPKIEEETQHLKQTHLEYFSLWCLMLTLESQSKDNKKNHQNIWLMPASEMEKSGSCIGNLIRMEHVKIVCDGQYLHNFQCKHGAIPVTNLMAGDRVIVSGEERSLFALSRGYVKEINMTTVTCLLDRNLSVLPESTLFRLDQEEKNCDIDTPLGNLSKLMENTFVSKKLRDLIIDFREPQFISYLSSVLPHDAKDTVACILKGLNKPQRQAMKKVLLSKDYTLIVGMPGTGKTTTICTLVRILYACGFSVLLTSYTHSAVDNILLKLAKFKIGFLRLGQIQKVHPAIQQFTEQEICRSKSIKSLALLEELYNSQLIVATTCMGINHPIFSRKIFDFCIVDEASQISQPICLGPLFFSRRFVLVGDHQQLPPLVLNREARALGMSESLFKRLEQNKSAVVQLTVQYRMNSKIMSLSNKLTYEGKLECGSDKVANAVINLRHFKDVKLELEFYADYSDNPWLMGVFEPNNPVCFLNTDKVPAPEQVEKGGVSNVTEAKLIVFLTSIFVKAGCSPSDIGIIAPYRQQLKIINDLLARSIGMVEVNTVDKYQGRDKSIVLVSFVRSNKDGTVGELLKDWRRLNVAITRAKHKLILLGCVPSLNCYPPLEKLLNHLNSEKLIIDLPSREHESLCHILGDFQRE
UniProt Q8IV48: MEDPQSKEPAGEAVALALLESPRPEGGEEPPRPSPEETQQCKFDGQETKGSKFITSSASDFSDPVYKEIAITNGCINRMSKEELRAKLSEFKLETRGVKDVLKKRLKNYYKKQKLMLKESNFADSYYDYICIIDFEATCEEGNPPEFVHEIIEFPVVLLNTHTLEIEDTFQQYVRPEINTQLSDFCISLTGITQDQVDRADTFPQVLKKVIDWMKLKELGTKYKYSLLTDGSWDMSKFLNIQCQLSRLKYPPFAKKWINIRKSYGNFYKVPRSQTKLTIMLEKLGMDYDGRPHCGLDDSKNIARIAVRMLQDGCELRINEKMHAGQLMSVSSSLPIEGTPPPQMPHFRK
UniProt Q12882: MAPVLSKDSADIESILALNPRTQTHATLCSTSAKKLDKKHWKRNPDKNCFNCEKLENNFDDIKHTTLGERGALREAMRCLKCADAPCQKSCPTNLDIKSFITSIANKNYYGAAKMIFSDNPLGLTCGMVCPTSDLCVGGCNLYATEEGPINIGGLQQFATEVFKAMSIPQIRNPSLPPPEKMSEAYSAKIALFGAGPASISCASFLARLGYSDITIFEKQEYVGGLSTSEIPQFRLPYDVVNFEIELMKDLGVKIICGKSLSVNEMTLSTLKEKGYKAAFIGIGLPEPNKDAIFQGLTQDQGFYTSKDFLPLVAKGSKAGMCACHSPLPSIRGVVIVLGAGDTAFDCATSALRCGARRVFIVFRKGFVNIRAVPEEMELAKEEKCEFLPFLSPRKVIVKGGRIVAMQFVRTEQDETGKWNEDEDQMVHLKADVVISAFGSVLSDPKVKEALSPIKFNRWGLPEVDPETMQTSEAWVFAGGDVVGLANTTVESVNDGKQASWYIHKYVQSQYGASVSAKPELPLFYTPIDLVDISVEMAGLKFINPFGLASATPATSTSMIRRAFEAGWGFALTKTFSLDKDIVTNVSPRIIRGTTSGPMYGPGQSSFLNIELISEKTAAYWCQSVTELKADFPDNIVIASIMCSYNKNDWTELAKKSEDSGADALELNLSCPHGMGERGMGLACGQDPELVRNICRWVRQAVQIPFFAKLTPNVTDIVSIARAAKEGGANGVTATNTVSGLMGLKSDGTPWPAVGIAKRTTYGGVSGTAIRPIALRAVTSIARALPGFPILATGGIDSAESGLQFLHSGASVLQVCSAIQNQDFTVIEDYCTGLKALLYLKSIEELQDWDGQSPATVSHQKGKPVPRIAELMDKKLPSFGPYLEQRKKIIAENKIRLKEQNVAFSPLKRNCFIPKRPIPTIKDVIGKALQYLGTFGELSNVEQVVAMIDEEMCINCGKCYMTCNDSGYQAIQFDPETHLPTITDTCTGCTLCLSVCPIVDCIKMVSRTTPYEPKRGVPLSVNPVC
UniProt Q9BZQ6: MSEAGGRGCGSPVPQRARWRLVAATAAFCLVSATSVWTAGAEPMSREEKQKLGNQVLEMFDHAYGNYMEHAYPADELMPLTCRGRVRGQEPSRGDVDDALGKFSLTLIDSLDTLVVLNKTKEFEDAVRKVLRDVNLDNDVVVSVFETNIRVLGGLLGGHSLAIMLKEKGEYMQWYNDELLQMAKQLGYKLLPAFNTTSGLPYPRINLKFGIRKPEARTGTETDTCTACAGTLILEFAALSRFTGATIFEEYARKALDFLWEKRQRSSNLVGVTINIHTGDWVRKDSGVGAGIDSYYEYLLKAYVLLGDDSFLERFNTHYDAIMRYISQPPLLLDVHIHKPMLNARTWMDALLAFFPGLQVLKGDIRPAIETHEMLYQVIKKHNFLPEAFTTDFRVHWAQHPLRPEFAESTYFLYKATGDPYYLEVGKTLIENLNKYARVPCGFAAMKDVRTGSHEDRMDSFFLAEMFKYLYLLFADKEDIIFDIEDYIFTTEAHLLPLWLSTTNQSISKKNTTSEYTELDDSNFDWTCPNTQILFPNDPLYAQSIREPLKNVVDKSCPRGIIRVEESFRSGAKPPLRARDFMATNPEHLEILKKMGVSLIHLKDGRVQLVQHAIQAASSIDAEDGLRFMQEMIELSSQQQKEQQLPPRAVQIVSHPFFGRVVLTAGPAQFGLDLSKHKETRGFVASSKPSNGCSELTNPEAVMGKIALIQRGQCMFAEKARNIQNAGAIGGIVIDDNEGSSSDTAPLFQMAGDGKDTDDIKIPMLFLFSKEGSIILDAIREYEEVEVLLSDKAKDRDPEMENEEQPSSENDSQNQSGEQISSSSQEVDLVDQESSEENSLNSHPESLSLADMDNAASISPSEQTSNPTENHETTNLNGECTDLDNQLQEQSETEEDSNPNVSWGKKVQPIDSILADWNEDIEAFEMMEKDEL
UniProt Q99615: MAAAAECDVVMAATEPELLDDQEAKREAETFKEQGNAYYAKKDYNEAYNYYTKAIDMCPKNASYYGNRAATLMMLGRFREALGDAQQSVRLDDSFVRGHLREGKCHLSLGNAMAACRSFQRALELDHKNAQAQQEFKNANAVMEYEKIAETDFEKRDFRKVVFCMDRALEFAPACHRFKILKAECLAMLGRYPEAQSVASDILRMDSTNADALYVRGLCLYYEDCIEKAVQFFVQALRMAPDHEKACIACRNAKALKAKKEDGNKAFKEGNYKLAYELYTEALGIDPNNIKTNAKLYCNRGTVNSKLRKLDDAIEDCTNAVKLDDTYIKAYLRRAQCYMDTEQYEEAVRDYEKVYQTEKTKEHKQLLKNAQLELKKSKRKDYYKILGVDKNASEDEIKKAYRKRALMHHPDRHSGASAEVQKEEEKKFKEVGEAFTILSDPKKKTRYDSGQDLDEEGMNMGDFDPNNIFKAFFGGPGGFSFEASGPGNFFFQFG
UniProt Q09472, whole entry: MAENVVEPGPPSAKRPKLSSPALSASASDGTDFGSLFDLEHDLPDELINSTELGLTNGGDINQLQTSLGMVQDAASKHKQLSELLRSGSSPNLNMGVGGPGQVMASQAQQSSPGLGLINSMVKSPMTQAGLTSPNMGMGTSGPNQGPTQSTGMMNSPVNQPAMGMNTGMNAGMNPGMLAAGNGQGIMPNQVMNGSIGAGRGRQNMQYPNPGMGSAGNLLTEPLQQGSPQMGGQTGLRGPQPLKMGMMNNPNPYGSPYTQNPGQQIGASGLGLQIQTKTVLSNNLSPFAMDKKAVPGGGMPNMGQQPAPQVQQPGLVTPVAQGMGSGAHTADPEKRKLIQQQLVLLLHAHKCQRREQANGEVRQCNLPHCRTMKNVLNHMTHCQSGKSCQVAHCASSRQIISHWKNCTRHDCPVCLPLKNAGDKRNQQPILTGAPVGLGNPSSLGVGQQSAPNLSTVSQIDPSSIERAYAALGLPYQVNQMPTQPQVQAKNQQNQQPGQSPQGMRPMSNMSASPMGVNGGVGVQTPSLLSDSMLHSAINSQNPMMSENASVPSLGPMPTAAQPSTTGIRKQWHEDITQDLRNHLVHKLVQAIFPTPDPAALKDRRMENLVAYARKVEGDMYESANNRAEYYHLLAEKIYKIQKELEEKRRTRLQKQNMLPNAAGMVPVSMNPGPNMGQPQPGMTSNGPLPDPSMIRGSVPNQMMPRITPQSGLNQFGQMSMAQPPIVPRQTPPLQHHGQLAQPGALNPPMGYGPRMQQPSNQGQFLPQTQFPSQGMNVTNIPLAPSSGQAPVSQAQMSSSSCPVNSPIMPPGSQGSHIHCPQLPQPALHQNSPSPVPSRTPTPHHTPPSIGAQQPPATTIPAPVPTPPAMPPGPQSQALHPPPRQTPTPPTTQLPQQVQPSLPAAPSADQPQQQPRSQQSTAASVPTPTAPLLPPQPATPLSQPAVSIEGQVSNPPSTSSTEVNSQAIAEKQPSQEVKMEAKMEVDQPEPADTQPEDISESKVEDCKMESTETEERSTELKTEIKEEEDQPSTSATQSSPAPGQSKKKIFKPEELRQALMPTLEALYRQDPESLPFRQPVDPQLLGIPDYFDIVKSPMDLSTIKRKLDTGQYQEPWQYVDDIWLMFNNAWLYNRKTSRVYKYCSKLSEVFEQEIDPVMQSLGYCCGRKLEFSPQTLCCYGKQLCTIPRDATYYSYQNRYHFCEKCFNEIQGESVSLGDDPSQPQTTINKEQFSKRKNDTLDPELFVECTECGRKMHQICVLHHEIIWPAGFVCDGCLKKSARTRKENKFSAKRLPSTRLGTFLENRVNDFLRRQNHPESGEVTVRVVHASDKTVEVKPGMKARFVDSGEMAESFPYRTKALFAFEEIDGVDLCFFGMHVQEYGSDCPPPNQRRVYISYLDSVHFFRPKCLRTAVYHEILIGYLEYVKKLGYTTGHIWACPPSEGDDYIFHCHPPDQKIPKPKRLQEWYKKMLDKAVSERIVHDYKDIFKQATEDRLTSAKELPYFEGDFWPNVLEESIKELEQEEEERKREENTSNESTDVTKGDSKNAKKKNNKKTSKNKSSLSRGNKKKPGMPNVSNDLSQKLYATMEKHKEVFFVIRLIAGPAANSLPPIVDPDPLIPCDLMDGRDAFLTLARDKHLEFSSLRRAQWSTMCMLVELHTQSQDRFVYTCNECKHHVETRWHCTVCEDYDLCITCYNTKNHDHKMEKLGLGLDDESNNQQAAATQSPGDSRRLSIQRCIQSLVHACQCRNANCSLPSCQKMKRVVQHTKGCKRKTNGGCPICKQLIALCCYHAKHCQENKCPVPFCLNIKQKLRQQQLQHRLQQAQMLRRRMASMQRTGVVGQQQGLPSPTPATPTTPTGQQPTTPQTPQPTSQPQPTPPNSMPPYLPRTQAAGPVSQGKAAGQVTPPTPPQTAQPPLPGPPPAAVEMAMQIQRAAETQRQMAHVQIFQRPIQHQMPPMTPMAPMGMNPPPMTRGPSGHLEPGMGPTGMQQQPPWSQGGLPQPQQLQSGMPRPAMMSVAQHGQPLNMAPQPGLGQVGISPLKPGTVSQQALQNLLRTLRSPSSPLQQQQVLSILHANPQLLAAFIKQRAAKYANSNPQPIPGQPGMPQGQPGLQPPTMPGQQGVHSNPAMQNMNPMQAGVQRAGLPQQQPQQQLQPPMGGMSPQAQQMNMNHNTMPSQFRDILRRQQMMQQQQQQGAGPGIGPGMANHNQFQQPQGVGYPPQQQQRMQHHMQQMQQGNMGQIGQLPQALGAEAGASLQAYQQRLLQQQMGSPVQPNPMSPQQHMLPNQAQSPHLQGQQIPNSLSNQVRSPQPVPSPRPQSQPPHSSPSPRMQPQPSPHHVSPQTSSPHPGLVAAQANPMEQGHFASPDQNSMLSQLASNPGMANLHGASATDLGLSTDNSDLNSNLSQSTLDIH

The other results are listed elsewhere or left out.

Compound in the assay: COc1ccc(Cn2ccc3ccc(C(=O)NO)cc32)cc1
The experiment in a line: dose-dependent thermal stabilisation call (2D-TPP, DLPTP, 10% FDR) (binary (1 = stabilised)); higher = stabilised by the compound. The conditions noted are these: system: HL-60 intact cells; concentration range 0.04-10 µM.
On to DLD (UniProt P09622), for which the “dose-dependent thermal stabilisation call” value is inactive: 0. DYNC2H1 (UniProt Q8NCM8): the “dose-dependent thermal stabilisation call” value is inactive: 0. Turning to EDD1 (UniProt O95071), the “dose-dependent thermal stabilisation call” value is inactive: 0. For EMP3 (UniProt P54852) the value was inactive: 0; for EIF4A1 (UniProt P60842), inactive: 0; for ELMOD2 (UniProt Q8IZ81), inactive: 0.

With DNAJC11 (UniProt Q9NVH1), the “dose-dependent thermal stabilisation call” value was inactive: 0. As for EEA1 (UniProt Q15075), the “dose-dependent thermal stabilisation call” value was inactive: 0. As to DNAJC19 (UniProt Q96DA6), the “dose-dependent thermal stabilisation call” value was inactive: 0.

Turning to DYNC1LI1 (UniProt Q9Y6G9), the “dose-dependent thermal stabilisation call” value was inactive: 0.

On to DNAJC8 (UniProt O75937), for which the “dose-dependent thermal stabilisation call” value was inactive: 0. On to DNAJC5 (UniProt Q9H3Z4), for which the “dose-dependent thermal stabilisation call” value was inactive: 0. With ERCC2 (UniProt P18074), the “dose-dependent thermal stabilisation call” value was inactive: 0.

With EIF2B3 (UniProt Q9NR50), the “dose-dependent thermal stabilisation call” value is inactive: 0.

On to DIMT1L (UniProt Q9UNQ2), for which the “dose-dependent thermal stabilisation call” value was inactive: 0. With EIF4EBP1 (UniProt Q13541), the “dose-dependent thermal stabilisation call” value was inactive: 0. For DNA2 (UniProt P51530), the “dose-dependent thermal stabilisation call” value was inactive: 0.

ERO1LB (UniProt Q86YB8): the “dose-dependent thermal stabilisation call” value is inactive: 0. On to EMB (UniProt Q6PCB8), for which the “dose-dependent thermal stabilisation call” value was inactive: 0.

With ERP29 (UniProt P30040), the “dose-dependent thermal stabilisation call” value was inactive: 0. On to EEF1G (UniProt P26641), for which the “dose-dependent thermal stabilisation call” value is inactive: 0. For ERI1 (UniProt Q8IV48) the value was inactive: 0. Regarding DIP2B (UniProt Q9P265), the “dose-dependent thermal stabilisation call” value was inactive: 0.

On to DNPEP (UniProt Q9ULA0), for which the “dose-dependent thermal stabilisation call” value was inactive: 0. For DPYD (UniProt Q12882) the value was inactive: 0. For EDEM3 (UniProt Q9BZQ6), the “dose-dependent thermal stabilisation call” value is inactive: 0. For EIF2B1 (UniProt Q14232) the value was inactive: 0. Consider DOM3Z (UniProt O77932), for which the “dose-dependent thermal stabilisation call” value is inactive: 0. For the target DNAJC7 (UniProt Q99615), the “dose-dependent thermal stabilisation call” value is inactive: 0.

As for ELAVL1 (UniProt Q15717), the “dose-dependent thermal stabilisation call” value is inactive: 0. As for DNMT1 (UniProt P26358), the “dose-dependent thermal stabilisation call” value was inactive: 0.

For EIF3B (UniProt P55884), the “dose-dependent thermal stabilisation call” value was inactive: 0. For DSG2 (UniProt Q14126), the “dose-dependent thermal stabilisation call” value is inactive: 0. For EIF3F (UniProt O00303), the “dose-dependent thermal stabilisation call” value was inactive: 0.

On to EMD (UniProt P50402), for which the “dose-dependent thermal stabilisation call” value is inactive: 0. Take EP300 (UniProt Q09472): the “dose-dependent thermal stabilisation call” value was inactive: 0. For DNM2 (UniProt P50570) the value was inactive: 0.
